# Experimental data as given in the supplement of paper PMC8728848.
# The list shows a part of the results.
# B1: Drgal1 (Danio rerio) (protein)
# chain: MAGVLIQNMSFKVGQTLTITGVPKPDSTNFAINIGHSPEDIALHMNPRFDAHGDQCTIVCNSFQSGSWCEEHRDDNFPFIQDKEFQIKITFTNEEFLVTLPDGSEIHFPNRQGSEKYKYMYFEGEVRIQGVEIK
# Legend:
# Test in all cases: glycan array binding signal (z-score within array); higher = stronger binding
# Settings in all cases: glycan notation: IUPAC condensed, linker removed
# Gal(a1-3)Gal = molecular target: Gal(a1-3)Gal
# Method in brief: (§1)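 Glycan array data were curated from 3228 arrays in the Consortium for Functional Glycomics database and kept only where the protein sequence was available. Glycan names were converted to IUPAC-condensed notation, and columns mapping to the same glycan were averaged. The binding signal is a within-array Z-score, averaged across arrays of the same protein sequence at different concentrations or buffers and across linkers. Negative Z-scores can be read as non-binding.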
# Gal(a1-3)Gal(b1-3)GlcNAc = molecular target: Gal(a1-3)Gal(b1-3)GlcNAc
# Method in brief: as §1
# [1] = molecular target: Gal(a1-3)Gal(b1-3)GlcNAc(b1-2)Man
# Method in brief: as §1
# [2] = molecular target: Gal(a1-3)Gal(b1-3)GlcNAc(b1-2)Man(a1-3)[Gal(a1-3)Gal(b1-3)GlcNAc(b1-2)Man(a1-6)]Man(b1-4)GlcNAc(b1-4)GlcNAc
# Method in brief: as §1
# [3] = molecular target: Gal(a1-3)Gal(b1-3)GlcNAc(b1-3)GalNAc
# Method in brief: as §1
# [4] = molecular target: Gal(a1-3)Gal(b1-3)GlcNAc(b1-6)GalNAc
# Method in brief: as §1
# [5] = molecular target: Gal(a1-3)Gal(b1-3)[Fuc(a1-4)]GlcNAc(b1-2)Man(a1-3)[Gal(a1-3)Gal(b1-3)[Fuc(a1-4)]GlcNAc(b1-2)Man(a1-6)]Man(b1-4)GlcNAc(b1-4)GlcNAc
# Method in brief: as §1
# Gal(a1-3)Gal(b1-4)Glc = molecular target: Gal(a1-3)Gal(b1-4)Glc
# Method in brief: as §1
# Gal(a1-3)Gal(b1-4)GlcNAc = molecular target: Gal(a1-3)Gal(b1-4)GlcNAc
# Method in brief: as §1
# [6] = molecular target: Gal(a1-3)Gal(b1-4)GlcNAc(b1-2)Man
# Method in brief: as §1
# [7] = molecular target: Gal(a1-3)Gal(b1-4)GlcNAc(b1-2)Man(a1-3)[Gal(a1-3)Gal(b1-4)GlcNAc(b1-2)Man(a1-6)]Man(b1-4)GlcNAc(b1-4)GlcNAc
# Method in brief: as §1
# [8] = molecular target: Gal(a1-3)Gal(b1-4)GlcNAc(b1-3)GalNAc
# Method in brief: as §1
# [9] = molecular target: Gal(a1-3)Gal(b1-4)GlcNAc(b1-6)GalNAc
# Method in brief: as §1
# [10] = molecular target: Gal(a1-3)Gal(b1-4)[Fuc(a1-3)]GlcNAc
# Method in brief: as §1
# [11] = molecular target: Gal(a1-3)Gal(b1-4)[Fuc(a1-3)]GlcNAc(b1-2)Man(a1-3)[Gal(a1-3)Gal(b1-4)[Fuc(a1-3)]GlcNAc(b1-2)Man(a1-6)]Man(b1-4)GlcNAc(b1-4)GlcNAc
# Method in brief: as §1
# Gal(a1-3)GalNAc = molecular target: Gal(a1-3)GalNAc
# Method in brief: as §1
# [12] = molecular target: Gal(a1-3)[Gal(a1-4)]Gal(b1-4)GlcNAc
# Method in brief: as §1
# [13] = molecular target: Gal(a1-4)Gal(b1-3)GlcNAc(b1-2)Man(a1-3)[Gal(a1-4)Gal(b1-3)GlcNAc(b1-2)Man(a1-6)]Man(b1-4)GlcNAc(b1-4)GlcNAc
# Method in brief: as §1
# Gal(a1-4)Gal(b1-4)Glc = molecular target: Gal(a1-4)Gal(b1-4)Glc
# Method in brief: as §1
# Gal(a1-4)Gal(b1-4)GlcNAc = molecular target: Gal(a1-4)Gal(b1-4)GlcNAc
# Method in brief: as §1
# [14] = molecular target: Gal(a1-4)Gal(b1-4)GlcNAc(b1-2)Man(a1-3)[Gal(a1-4)Gal(b1-4)GlcNAc(b1-2)Man(a1-6)]Man(b1-4)GlcNAc(b1-4)GlcNAc
# Method in brief: as §1
# [15] = molecular target: Gal(a1-4)Gal(b1-4)GlcNAc(b1-3)Gal(b1-4)Glc
# Method in brief: as §1
# Gal(a1-4)GlcNAc = molecular target: Gal(a1-4)GlcNAc
# Method in brief: as §1
# Gal(a1-6)Glc = molecular target: Gal(a1-6)Glc
# Method in brief: as §1
# Gal(b1-2)Gal = molecular target: Gal(b1-2)Gal
# Method in brief: as §1
# Gal(b1-3)Gal = molecular target: Gal(b1-3)Gal
# Method in brief: as §1
# Gal(b1-3)Gal(b1-4)GlcNAc = molecular target: Gal(b1-3)Gal(b1-4)GlcNAc
# Method in brief: as §1
# Gal(b1-3)GalNAc = molecular target: Gal(b1-3)GalNAc
# Method in brief: as §1
# [16] = molecular target: Gal(b1-3)GalNAc(a1-3)[Fuc(a1-2)]Gal(b1-4)Glc
# Method in brief: as §1
# [17] = molecular target: Gal(b1-3)GalNAc(a1-3)[Fuc(a1-2)]Gal(b1-4)GlcNAc
# Method in brief: as §1
# Gal(b1-3)GalNAc(b1-3)Gal = molecular target: Gal(b1-3)GalNAc(b1-3)Gal
# Method in brief: as §1
# [18] = molecular target: Gal(b1-3)GalNAc(b1-3)Gal(a1-4)Gal(b1-4)Glc
# Method in brief: as §1
# [19] = molecular target: Gal(b1-3)GalNAc(b1-4)Gal(b1-4)Glc
# Method in brief: as §1
# [20] = molecular target: Gal(b1-3)GalNAc(b1-4)[Neu5Ac(a2-3)]Gal(b1-4)Glc
# Method in brief: as §1
# Gal(b1-3)GlcNAc = molecular target: Gal(b1-3)GlcNAc
# Method in brief: as §1
# [21] = molecular target: Gal(b1-3)GlcNAc(a1-3)Gal(b1-4)GlcNAc
# Method in brief: as §1
# [22] = molecular target: Gal(b1-3)GlcNAc(a1-6)Gal(b1-4)GlcNAc
# Method in brief: as §1
# Gal(b1-3)GlcNAc(b1-2)Man = molecular target: Gal(b1-3)GlcNAc(b1-2)Man
# Method in brief: as §1
binder,measurement,setting,value
B1,glycan array binding signal (z-score),Gal(a1-3)Gal,0.192
same,glycan array binding signal (z-score),Gal(a1-3)Gal(b1-3)GlcNAc,-0.76
same,glycan array binding signal (z-score),[1],-0.788
same,glycan array binding signal (z-score),[2],0.05
same,glycan array binding signal (z-score),[3],-0.439
same,glycan array binding signal (z-score),[4],-0.323
same,glycan array binding signal (z-score),[5],0.574
same,glycan array binding signal (z-score),Gal(a1-3)Gal(b1-4)Glc,-0.159
same,glycan array binding signal (z-score),Gal(a1-3)Gal(b1-4)GlcNAc,-0.346
same,glycan array binding signal (z-score),[6],-0.747
same,glycan array binding signal (z-score),[7],1.71
same,glycan array binding signal (z-score),[8],-0.48
same,glycan array binding signal (z-score),[9],-0.195
same,glycan array binding signal (z-score),[10],-0.226
same,glycan array binding signal (z-score),[11],-0.521
same,glycan array binding signal (z-score),Gal(a1-3)GalNAc,1.5
same,glycan array binding signal (z-score),[12],1.28
same,glycan array binding signal (z-score),[13],-0.114
same,glycan array binding signal (z-score),Gal(a1-4)Gal(b1-4)Glc,0.346
same,glycan array binding signal (z-score),Gal(a1-4)Gal(b1-4)GlcNAc,0.682
same,glycan array binding signal (z-score),[14],0.698
same,glycan array binding signal (z-score),[15],-0.121
same,glycan array binding signal (z-score),Gal(a1-4)GlcNAc,-0.487
same,glycan array binding signal (z-score),Gal(a1-6)Glc,-0.869
same,glycan array binding signal (z-score),Gal(b1-2)Gal,-0.068
same,glycan array binding signal (z-score),Gal(b1-3)Gal,-0.116
same,glycan array binding signal (z-score),Gal(b1-3)Gal(b1-4)GlcNAc,-0.653
same,glycan array binding signal (z-score),Gal(b1-3)GalNAc,-0.103
same,glycan array binding signal (z-score),[16],-0.485
same,glycan array binding signal (z-score),[17],-0.213
same,glycan array binding signal (z-score),Gal(b1-3)GalNAc(b1-3)Gal,0.409
same,glycan array binding signal (z-score),[18],-0.251
same,glycan array binding signal (z-score),[19],0.161
same,glycan array binding signal (z-score),[20],0.475
same,glycan array binding signal (z-score),Gal(b1-3)GlcNAc,0.12
same,glycan array binding signal (z-score),[21],-0.134
same,glycan array binding signal (z-score),[22],-0.225
same,glycan array binding signal (z-score),Gal(b1-3)GlcNAc(b1-2)Man,1.85

# Another view of part of the listing above.
binder	measurement	setting	value
B1	glycan array binding signal (z-score)	Gal(b1-2)Gal	-0.068
same	glycan array binding signal (z-score)	Gal(b1-3)Gal	-0.116
